Data source: PubChem BioAssay AID652272 (Drosophila RNAi Screening Center, 2013)

Aim: 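Genome-wide knock-down search for components of Hedgehog signalling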 (primary screen)
System: Drosophila clone 8 (Cl8) cells
Reagent: long dsRNA against Drosophila genes
Measurement: 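Plate reader light from a firefly reporter under a ptc promoter fragment that responds to Hedgehog, with Renilla light as transfection reference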
Scale: firefly Hh reporter signal: higher = more ptc reporter light; Renilla reference signal: higher = more Renilla control light
Hit rule: 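Hit when the z-score averaged over two replicates is under -2 or over +3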
Calls: active = hit: reporter lowered or raised; inactive = not a hit
The deposit covers about 21,000 reagents; this is a random part of those with a known target gene and a result. Of all reagents, 503 (2.4%) got an active call. 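Raw plate light values, not normalised; calls rest on replicate z-scores that were not deposited; hits include reporter decreases as well as increases.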 A number with no mark means an inactive call. No sequences are given here. The record does not give: the amount of reagent, the time to read-out.

Against CG31008 [DRSC14028] the deposit lists firefly Hh reporter signal, replicate 1 = 4.56e5; firefly Hh reporter signal, replicate 2 = 1.74e5; Renilla reference signal, replicate 1 = 21559; Renilla reference signal, replicate 2 = 3581.
After knock-down of l(3)neo38 (lethal (3) neo38) [DRSC14946] the results were firefly Hh reporter signal, replicate 1 = 1.52e5; firefly Hh reporter signal, replicate 2 = 5.17e5; firefly Hh reporter signal, replicate 3 = 1.49e5; Renilla reference signal, replicate 1 = 3101; Renilla reference signal, replicate 2 = 3344.
Depletion of l(3)neo38 (lethal (3) neo38) [DRSC16138] gave: firefly Hh reporter signal, replicate 1 = 75873; firefly Hh reporter signal, replicate 2 = 88209; Renilla reference signal, replicate 1 = 2624; Renilla reference signal, replicate 2 = 2368.
Silencing of Top2 (Topoisomerase 2) [DRSC03459] gave: firefly Hh reporter signal, replicate 1 = 95563; firefly Hh reporter signal, replicate 2 = 43608; Renilla reference signal, replicate 1 = 2390; Renilla reference signal, replicate 2 = 3893.
Against NPFR (Neuropeptide F receptor) [DRSC12173], the entry reads firefly Hh reporter signal, replicate 1 = 82827; firefly Hh reporter signal, replicate 2 = 1.24e5; Renilla reference signal, replicate 1 = 4038; Renilla reference signal, replicate 2 = 3104.
Silencing of Pgm2b (Phosphoglucomutase 2b) [DRSC05978] resulted in: firefly Hh reporter signal, replicate 1 = 1.22e5; firefly Hh reporter signal, replicate 2 = 85029; Renilla reference signal, replicate 1 = 5446; Renilla reference signal, replicate 2 = 3126.
Depletion of CREG (Cellular Repressor of E1A-stimulated Genes) [DRSC16595] resulted in: firefly Hh reporter signal, replicate 1 = 68978; firefly Hh reporter signal, replicate 2 = 1.02e5; Renilla reference signal, replicate 1 = 1831; Renilla reference signal, replicate 2 = 2536.
CG4707 [DRSC04483] gave firefly Hh reporter signal, replicate 1 = 98040; firefly Hh reporter signal, replicate 2 = 50435; Renilla reference signal, replicate 1 = 3500; Renilla reference signal, replicate 2 = 2048.
mad2 [DRSC10274] scored firefly Hh reporter signal, replicate 1 = 50131; firefly Hh reporter signal, replicate 2 = 41749; Renilla reference signal, replicate 1 = 3798; Renilla reference signal, replicate 2 = 3056.
For CG4681 [DRSC04481], the entry reads firefly Hh reporter signal, replicate 1 = 65573; firefly Hh reporter signal, replicate 2 = 66788; Renilla reference signal, replicate 1 = 1285; Renilla reference signal, replicate 2 = 4977.
For CG10064 [DRSC09689], the values are firefly Hh reporter signal, replicate 1 = 43318; firefly Hh reporter signal, replicate 2 = 47810; Renilla reference signal, replicate 1 = 5170; Renilla reference signal, replicate 2 = 3233.
With knock-down of Hs3st-B (Heparan sulfate 3-O sulfotransferase-B) [DRSC20067] the results were firefly Hh reporter signal, replicate 1 = 1.01e5; firefly Hh reporter signal, replicate 2 = 3.17e5; Renilla reference signal, replicate 1 = 2801; Renilla reference signal, replicate 2 = 12800.
With knock-down of CG8547 [DRSC07211], the screen gave firefly Hh reporter signal, replicate 1 = 1.10e5; firefly Hh reporter signal, replicate 2 = 1.10e5; Renilla reference signal, replicate 1 = 4768; Renilla reference signal, replicate 2 = 4321.
Silencing of Marf1 (Meiosis regulator and mRNA stability factor 1) [DRSC03747] gave: firefly Hh reporter signal, replicate 1 = 74119; firefly Hh reporter signal, replicate 2 = 65595; Renilla reference signal, replicate 1 = 2149; Renilla reference signal, replicate 2 = 6305.
For Marf1 (Meiosis regulator and mRNA stability factor 1) [DRSC03774], the entry reads firefly Hh reporter signal, replicate 1 = 1.02e5; firefly Hh reporter signal, replicate 2 = 2.32e5; Renilla reference signal, replicate 1 = 2657; Renilla reference signal, replicate 2 = 9605.

Laid out differently: 2 of the entries above
target gene,amplicon,"firefly Hh reporter signal, replicate 1","firefly Hh reporter signal, replicate 2","firefly Hh reporter signal, replicate 3","Renilla reference signal, replicate 1","Renilla reference signal, replicate 2"
CG4681,DRSC04481,65573,66788,,1285,4977
CG10064,DRSC09689,43318,47810,,5170,3233
